# Laboratory results: the supplement of paper PMC10849652
# Amino acid sequences for entries named in this document (tags omitted). A change or cut given only in a name is not applied to a line headed by its entry.
# UniProt Q99707: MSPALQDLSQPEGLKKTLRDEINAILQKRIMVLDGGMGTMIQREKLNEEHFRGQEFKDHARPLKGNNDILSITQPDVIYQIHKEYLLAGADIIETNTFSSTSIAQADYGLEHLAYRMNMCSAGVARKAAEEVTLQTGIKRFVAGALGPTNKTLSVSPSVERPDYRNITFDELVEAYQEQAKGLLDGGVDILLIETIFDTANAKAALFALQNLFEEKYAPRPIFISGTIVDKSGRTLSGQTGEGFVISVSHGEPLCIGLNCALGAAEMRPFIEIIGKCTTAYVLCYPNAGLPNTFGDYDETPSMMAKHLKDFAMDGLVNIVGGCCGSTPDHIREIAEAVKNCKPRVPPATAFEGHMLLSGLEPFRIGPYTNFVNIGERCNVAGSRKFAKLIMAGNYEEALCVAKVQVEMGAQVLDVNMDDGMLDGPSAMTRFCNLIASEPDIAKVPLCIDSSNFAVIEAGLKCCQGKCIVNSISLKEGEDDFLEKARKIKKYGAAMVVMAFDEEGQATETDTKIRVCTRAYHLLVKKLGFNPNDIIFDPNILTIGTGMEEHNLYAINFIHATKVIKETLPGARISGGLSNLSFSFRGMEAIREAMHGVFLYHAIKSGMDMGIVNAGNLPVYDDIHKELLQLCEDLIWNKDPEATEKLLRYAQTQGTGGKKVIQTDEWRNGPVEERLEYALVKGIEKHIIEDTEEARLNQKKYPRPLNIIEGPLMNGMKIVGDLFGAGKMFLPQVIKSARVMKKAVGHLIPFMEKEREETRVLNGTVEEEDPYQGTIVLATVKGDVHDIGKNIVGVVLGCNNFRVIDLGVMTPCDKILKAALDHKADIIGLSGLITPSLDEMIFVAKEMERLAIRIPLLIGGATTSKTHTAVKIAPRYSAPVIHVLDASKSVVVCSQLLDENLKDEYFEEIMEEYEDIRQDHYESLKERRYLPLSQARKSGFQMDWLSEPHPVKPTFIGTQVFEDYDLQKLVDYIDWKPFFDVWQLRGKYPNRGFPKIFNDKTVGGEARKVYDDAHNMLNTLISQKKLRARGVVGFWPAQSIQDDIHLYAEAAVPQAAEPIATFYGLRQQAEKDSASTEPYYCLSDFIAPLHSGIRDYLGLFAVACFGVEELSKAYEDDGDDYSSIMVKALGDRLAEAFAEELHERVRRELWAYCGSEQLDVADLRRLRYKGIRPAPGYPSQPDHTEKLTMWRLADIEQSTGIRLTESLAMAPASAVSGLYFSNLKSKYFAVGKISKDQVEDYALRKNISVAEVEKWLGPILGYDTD
# UniProt Q13614, whole entry, looked up: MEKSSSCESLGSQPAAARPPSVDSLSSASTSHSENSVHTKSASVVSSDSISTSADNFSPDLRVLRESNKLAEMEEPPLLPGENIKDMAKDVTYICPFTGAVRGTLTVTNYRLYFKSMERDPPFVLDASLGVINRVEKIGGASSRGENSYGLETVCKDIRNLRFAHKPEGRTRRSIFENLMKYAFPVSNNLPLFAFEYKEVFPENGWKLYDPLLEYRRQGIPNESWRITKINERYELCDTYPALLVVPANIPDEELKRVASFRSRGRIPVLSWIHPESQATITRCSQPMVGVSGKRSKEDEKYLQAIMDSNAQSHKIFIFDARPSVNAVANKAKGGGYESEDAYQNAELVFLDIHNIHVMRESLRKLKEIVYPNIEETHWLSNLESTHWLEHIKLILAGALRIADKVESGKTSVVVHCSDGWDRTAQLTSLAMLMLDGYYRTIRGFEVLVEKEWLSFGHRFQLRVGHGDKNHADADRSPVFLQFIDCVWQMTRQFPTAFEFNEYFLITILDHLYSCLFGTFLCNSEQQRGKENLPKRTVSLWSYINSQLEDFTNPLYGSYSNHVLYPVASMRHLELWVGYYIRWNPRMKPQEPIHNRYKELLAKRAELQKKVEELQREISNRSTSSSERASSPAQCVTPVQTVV
# UniProt Q765P7: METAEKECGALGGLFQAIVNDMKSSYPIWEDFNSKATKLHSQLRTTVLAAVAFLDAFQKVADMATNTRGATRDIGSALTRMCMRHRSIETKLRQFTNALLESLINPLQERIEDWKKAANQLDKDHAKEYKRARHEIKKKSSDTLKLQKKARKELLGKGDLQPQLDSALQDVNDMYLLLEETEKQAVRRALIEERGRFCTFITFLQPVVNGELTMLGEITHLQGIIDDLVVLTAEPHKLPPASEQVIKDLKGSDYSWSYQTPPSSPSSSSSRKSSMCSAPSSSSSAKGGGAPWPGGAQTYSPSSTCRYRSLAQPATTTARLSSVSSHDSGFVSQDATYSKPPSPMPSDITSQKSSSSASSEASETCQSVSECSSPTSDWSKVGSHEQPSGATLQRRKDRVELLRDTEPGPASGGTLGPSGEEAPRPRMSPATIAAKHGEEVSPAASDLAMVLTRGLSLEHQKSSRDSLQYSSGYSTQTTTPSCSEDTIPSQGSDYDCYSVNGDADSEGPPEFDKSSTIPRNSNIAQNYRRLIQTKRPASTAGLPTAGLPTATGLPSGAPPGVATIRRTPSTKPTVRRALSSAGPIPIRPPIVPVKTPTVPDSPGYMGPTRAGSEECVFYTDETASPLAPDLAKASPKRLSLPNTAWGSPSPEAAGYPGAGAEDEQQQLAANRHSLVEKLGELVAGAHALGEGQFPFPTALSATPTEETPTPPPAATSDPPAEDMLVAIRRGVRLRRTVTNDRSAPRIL
# UniProt P03891, whole entry, looked up: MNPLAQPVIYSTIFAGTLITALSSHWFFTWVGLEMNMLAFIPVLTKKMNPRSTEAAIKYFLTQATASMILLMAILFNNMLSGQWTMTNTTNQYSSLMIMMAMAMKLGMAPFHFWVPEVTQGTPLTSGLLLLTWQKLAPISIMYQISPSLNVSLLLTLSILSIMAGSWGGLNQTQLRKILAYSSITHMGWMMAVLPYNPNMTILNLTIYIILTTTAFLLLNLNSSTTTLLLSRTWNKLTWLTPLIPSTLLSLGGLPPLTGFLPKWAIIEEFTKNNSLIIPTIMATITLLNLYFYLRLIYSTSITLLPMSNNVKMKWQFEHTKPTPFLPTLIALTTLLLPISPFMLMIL
# UniProt P82909: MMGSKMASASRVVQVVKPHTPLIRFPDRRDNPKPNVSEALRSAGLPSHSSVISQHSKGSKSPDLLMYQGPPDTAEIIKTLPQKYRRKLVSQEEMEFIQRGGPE
# Some of the results follow.
# Columns and labels:
# Experiment in all cases: log2 fold change, soluble protein after heating vs DMSO (PISA); higher = thermal stabilisation; K562 lysate, 10 uM; active = over 0.2 and 3.5 SD of the protein, either way, in both replicates (recomputed)
# vemurafenib = compound: CCCS(=O)(=O)Nc1ccc(F)c(C(=O)c2c[nH]c3ncc(-c4ccc(Cl)cc4)cc23)c1F [vemurafenib]
# Outline: (§1)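 Quantification was by TMTpro 16plex LC-MS/MS with equalised channel sums, applied to the supernatant after 21,000xg for 90 min. Samples were crude K562 extract at 1 mg/mL protein in PBS pH 7.4 with 1 mM MgCl2, treated with 10 μM compound for 30 min, heated for 3 min across 48°C-58°C, pooled and brought to 0.5% NP-40 at 4°C. Values are log-two fold changes in thermal stability relative to solvent controls, from duplicates.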
# [1] = compound: CCCS(=O)(=O)Nc1ccc(F)c(C(=O)c2c[nH]c3ncc(Cl)cc23)c1F
# Outline: as §1
# barasertib = compound: CCN(CCCOc1ccc2c(Nc3cc(CC(=O)Nc4cccc(F)c4)[nH]n3)ncnc2c1)CCOP(=O)(O)O [barasertib]
# Outline: as §1
# [2] = compound: CC[C@@H]1C(=O)N(C)c2cnc(Nc3ccc(C(=O)NC4CCN(C)CC4)cc3OC)nc2N1C1CCCC1
# Outline: as §1
# volasertib = compound: CC[C@@H]1C(=O)N(C)c2cnc(Nc3ccc(C(=O)N[C@H]4CC[C@H](N5CCN(CC6CC6)CC5)CC4)cc3OC)nc2N1C(C)C [volasertib]
# Outline: as §1
# [3] = compound: CCn1c(C(=O)N(C2CC2)C2CC2)cc2c3c(ncn3C)c(Nc3cc(C)n(C)n3)nc21
# Outline: as §1
# [4] = compound: CCn1cc(-c2ccnc3[nH]c(-c4cccc(CN(C)C)c4)cc23)c(-c2ccc(NC(=O)N(C)C)cc2)n1
# Outline: as §1
# [5] = compound: CN1CCC(CNc2ccc3ncc(-c4cccc(OC(F)(F)F)c4)n3n2)CC1
# Outline: as §1
# saracatinib = compound: CN1CCN(CCOc2cc(OC3CCOCC3)c3c(Nc4c(Cl)ccc5c4OCO5)ncnc3c2)CC1 [saracatinib]
# Outline: as §1
# sotrastaurin = compound: CN1CCN(c2nc(C3=C(c4c[nH]c5ccccc45)C(=O)NC3=O)c3ccccc3n2)CC1 [sotrastaurin]
# Outline: as §1
# alvocidib = compound: CN1CC[C@H](c2c(O)cc(O)c3c(=O)cc(-c4ccccc4Cl)oc23)[C@H](O)C1 [alvocidib]
# Outline: as §1
# Tubastatin A = compound: CN1CCc2c(c3ccccc3n2Cc2ccc(C(=O)NO)cc2)C1 [Tubastatin A]
# Outline: as §1
# [6] = compound: CNC(=O)C1=CC=CC=C1NC2=NC(=NC=C2Cl)NC3=C(C=C(C=C3)N4CCOCC4)OC
# Outline: as §1
# defactinib = compound: CNC(=O)c1ccc(Nc2ncc(C(F)(F)F)c(NCc3nccnc3N(C)S(C)(=O)=O)n2)cc1 [defactinib]
# Outline: as §1
# [7] = compound: CNc1nc(-c2ccc3c(N)n[nH]c3c2)cc(N2C[C@@H](C(=O)NC3CCCCC3)CC[C@H]2C)n1
# Outline: as §1
# encorafenib = compound: COC(=O)N[C@@H](C)CNc1nccc(-c2cn(C(C)C)nc2-c2cc(Cl)cc(NS(C)(=O)=O)c2F)n1 [encorafenib]
# Outline: as §1
# [8] = compound: COC(=O)[C@H](CCSC)NC(=O)C1=C(C=C(C=C1)NC[C@H](CS)N)C2=CC=CC=C2
# Outline: as §1
# alisertib = compound: COc1cc(Nc2ncc3c(n2)-c2ccc(Cl)cc2C(c2c(F)cccc2OC)=NC3)ccc1C(=O)O [alisertib]
# Outline: as §1
# [9] = compound: COc1cc2nc(-c3cc(F)ccc3O)nc(N[C@@H]3CNC[C@H]3C(C)(C)O)c2cc1OC
# Outline: as §1
# gefitinib = compound: COc1cc2ncnc(Nc3ccc(F)c(Cl)c3)c2cc1OCCCN1CCOCC1 [gefitinib]
# Outline: as §1
Target,log2 fold change (vemurafenib),log2 fold change [1],log2 fold change (barasertib),log2 fold change [2],log2 fold change (volasertib),log2 fold change [3],log2 fold change [4],log2 fold change [5],log2 fold change (saracatinib),log2 fold change (sotrastaurin),log2 fold change (alvocidib),log2 fold change (Tubastatin A),log2 fold change [6],log2 fold change (defactinib),log2 fold change [7],log2 fold change (encorafenib),log2 fold change [8],log2 fold change (alisertib),log2 fold change [9],log2 fold change (gefitinib)
MTR (UniProt Q99707),inactive: 0.036,inactive: 0.064,inactive: 0.022,inactive: 0.022,inactive: -0.032,inactive: -0.009,inactive: -0.09,inactive: -0.009,inactive: 0.014,inactive: 0.045,inactive: 0.001,inactive: -0.069,inactive: -0.011,inactive: 0.026,inactive: 0.001,inactive: -0.002,inactive: 0.076,inactive: 0.004,inactive: -0.02,inactive: 0.008
MTHFD1L (UniProt B7ZM99),inactive: 0.01,inactive: 0,inactive: -0.033,inactive: -0.111,inactive: -0.002,inactive: 0.019,inactive: -0.013,inactive: -0.056,inactive: 0.004,inactive: 0.036,inactive: 0.029,inactive: -0.084,inactive: 0.02,inactive: 0.034,inactive: -0.01,inactive: -0.041,inactive: 0.072,inactive: 0.032,inactive: 0.009,inactive: -0.007
MRPL39 isoform 2 (UniProt Q9NYK5),inactive: 0.042,inactive: -0.016,inactive: 0.021,inactive: 0.048,inactive: -0.041,inactive: -0.014,inactive: 0.167,inactive: -0.061,inactive: -0.025,inactive: 0.056,inactive: 0.047,inactive: -0.013,inactive: -0.01,inactive: -0.015,inactive: -0.012,inactive: 0.073,inactive: -0.088,inactive: 0.004,inactive: -0.006,inactive: -0.011
MRPL28 (UniProt Q13084),inactive: 0.005,inactive: 0.009,inactive: 0.053,inactive: -0.06,inactive: 0.019,inactive: 0.024,active: 0.411,inactive: -0.356,inactive: -0.016,inactive: 0.055,inactive: 0.261,inactive: -0.074,inactive: -0.11,inactive: 0.039,inactive: 0.001,inactive: 0.026,inactive: -0.026,inactive: 0.045,inactive: -0.02,inactive: 0.072
MRPS5 (UniProt P82675),inactive: -0.078,inactive: 0.017,inactive: 0.01,inactive: -0.074,inactive: -0.02,inactive: -0.027,inactive: 0.041,inactive: -0.017,inactive: -0.041,inactive: 0.032,inactive: 0.004,inactive: 0.031,inactive: 0.036,inactive: 0.089,inactive: 0.002,inactive: -0.021,inactive: 0.081,inactive: 0.007,inactive: -0.014,inactive: -0.005
MTMR2 (UniProt Q13614),inactive: 0.023,inactive: -0.009,inactive: 0.036,inactive: 0.055,inactive: -0.001,inactive: 0.092,inactive: -0.048,inactive: 0.038,inactive: 0.027,inactive: 0.047,inactive: -0.008,inactive: 0.044,inactive: 0,inactive: -0.012,inactive: -0.026,inactive: -0.001,inactive: 0.034,inactive: 0.094,inactive: 0.015,inactive: 0.078
MRPL33 (UniProt O75394),inactive: -0.155,inactive: 0.064,inactive: 0.082,inactive: -0.156,inactive: -0.063,inactive: -0.13,inactive: 0.079,inactive: 0.036,inactive: 0.09,inactive: -0.121,inactive: 0.004,inactive: 0.084,inactive: 0.126,inactive: 0.11,inactive: 0.079,inactive: 0.036,inactive: 0.099,inactive: -0.069,inactive: -0.057,inactive: 0.055
MRTO4 (UniProt Q9UKD2),inactive: -0.025,inactive: 0.011,inactive: -0.003,inactive: -0.029,inactive: -0.007,inactive: 0.011,inactive: -0.084,inactive: 0.01,inactive: -0.001,inactive: 0,inactive: 0.002,inactive: 0.021,inactive: -0.018,inactive: 0.005,inactive: -0.054,inactive: 0.014,inactive: 0.027,inactive: 0.026,inactive: 0.004,inactive: 0
MTSS2 (UniProt Q765P7),inactive: 0.022,inactive: 0,inactive: 0.047,inactive: 0.033,inactive: 0.011,inactive: -0.021,inactive: -0.035,inactive: 0.009,inactive: 0.022,inactive: -0.042,inactive: -0.005,inactive: 0.058,inactive: 0.073,inactive: 0.028,inactive: -0.018,inactive: -0.022,inactive: 0.033,inactive: 0.033,inactive: 0,inactive: 0.025
MRPL44 (UniProt Q9H9J2),inactive: 0.018,inactive: 0.033,inactive: 0.122,inactive: -0.03,inactive: -0.004,inactive: -0.039,inactive: -0.021,inactive: 0.025,inactive: -0.003,inactive: -0.075,inactive: -0.032,inactive: -0.012,inactive: 0.046,inactive: 0.019,inactive: 0.015,inactive: -0.053,inactive: 0.014,inactive: -0.006,inactive: -0.035,inactive: 0.058
MRPL54 (UniProt Q6P161),inactive: 0.011,inactive: -0.014,inactive: -0.042,inactive: 0.064,inactive: -0.006,inactive: 0.024,inactive: 0.082,inactive: -0.043,inactive: 0.022,inactive: 0.01,inactive: 0.001,inactive: -0.002,inactive: 0.033,inactive: 0.004,inactive: -0.006,inactive: -0.003,inactive: -0.103,inactive: 0.006,inactive: 0.005,inactive: -0.013
MT-ND2 (UniProt P03891),inactive: -0.097,inactive: 0.015,inactive: -0.035,inactive: -0.157,inactive: -0.008,inactive: 0.068,inactive: -0.12,inactive: -0.054,inactive: 0.04,inactive: -0.073,inactive: 0.054,inactive: 0.059,inactive: 0.037,inactive: 0.107,inactive: -0.132,inactive: 0.034,inactive: -0.063,inactive: 0,inactive: -0.036,inactive: -0.018
MRPL52 (UniProt Q86TS9),inactive: -0.133,inactive: 0.041,inactive: 0.016,inactive: 0.074,inactive: -0.037,inactive: -0.047,inactive: -0.064,inactive: 0.131,inactive: 0,inactive: -0.106,inactive: -0.146,inactive: 0.003,inactive: -0.034,inactive: 0.08,inactive: 0.092,inactive: -0.031,inactive: 0.019,inactive: -0.019,inactive: -0.092,inactive: 0.032
MRPS35 (UniProt P82673),inactive: 0.018,inactive: 0.007,inactive: 0.007,inactive: -0.001,inactive: -0.031,inactive: -0.003,inactive: -0.01,inactive: -0.036,inactive: 0.002,inactive: 0.058,inactive: 0.022,inactive: 0.021,inactive: -0.023,inactive: 0.002,inactive: 0.061,inactive: 0.006,inactive: -0.03,inactive: 0.037,inactive: -0.023,inactive: 0.039
MRPS25 (UniProt P82663),inactive: -0.001,inactive: 0.141,inactive: 0.075,inactive: -0.093,inactive: 0.02,inactive: -0.002,inactive: 0.04,inactive: 0.026,inactive: -0.072,inactive: 0.015,inactive: 0.06,inactive: 0.012,inactive: 0.015,inactive: 0.072,inactive: 0.047,inactive: 0.008,inactive: 0.077,inactive: 0.028,inactive: -0.075,inactive: 0.116
MRPS36 (UniProt P82909),inactive: -0.009,inactive: 0.024,inactive: -0.082,inactive: 0.056,inactive: -0.028,inactive: -0.044,inactive: -0.199,inactive: 0.102,inactive: 0.019,inactive: 0.039,inactive: -0.023,inactive: 0.087,inactive: -0.01,inactive: 0.027,inactive: 0.152,inactive: 0.009,inactive: -0.017,inactive: -0.106,inactive: -0.018,inactive: -0.023

# Full records as entered above. Values in the order: log2 fold change (vemurafenib)	log2 fold change [1]	log2 fold change (barasertib)	log2 fold change [2]	log2 fold change (volasertib)	log2 fold change [3]	log2 fold change [4]	log2 fold change [5]	log2 fold change (saracatinib)	log2 fold change (sotrastaurin)	log2 fold change (alvocidib)	log2 fold change (Tubastatin A)	log2 fold change [6]	log2 fold change (defactinib)	log2 fold change [7]	log2 fold change (encorafenib)	log2 fold change [8]	log2 fold change (alisertib)	log2 fold change [9]	log2 fold change (gefitinib)
# MRPL54 (UniProt Q6P161) as listed: inactive: 0.011	inactive: -0.014	inactive: -0.042	inactive: 0.064	inactive: -0.006	inactive: 0.024	inactive: 0.082	inactive: -0.043	inactive: 0.022	inactive: 0.01	inactive: 0.001	inactive: -0.002	inactive: 0.033	inactive: 0.004	inactive: -0.006	inactive: -0.003	inactive: -0.103	inactive: 0.006	inactive: 0.005	inactive: -0.013
# MRPS35 (UniProt P82673) as listed: inactive: 0.018	inactive: 0.007	inactive: 0.007	inactive: -0.001	inactive: -0.031	inactive: -0.003	inactive: -0.01	inactive: -0.036	inactive: 0.002	inactive: 0.058	inactive: 0.022	inactive: 0.021	inactive: -0.023	inactive: 0.002	inactive: 0.061	inactive: 0.006	inactive: -0.03	inactive: 0.037	inactive: -0.023	inactive: 0.039
